# According to PubChem BioAssay AID248 (DTP/NCI, 2004):
# The list is a part of this screen's results and no random one: it is rich in T/C values a quarter to a half above the control, in often repeated tests (any T/C) and in doses without a T/C. Further doses and runs are listed elsewhere. T/C gives the treated animals as a percentage of the vehicle group. Some entries give survivors of the animals treated and no T/C: the source holds a T/C of zero for them, seemingly a mark for toxic or unscored doses. Some doses without a T/C left all or most animals alive at the check, yet need not have been tolerated: survival well below the control is almost never listed, so the zero probably covers shortened survival too. Counts of survivors are from the toxicity check (mostly the fifth day) where no day follows; animals may have died later. Schedule codes are those of the source, taken here to give the interval after Q, in days (D) or hours (H), and the number of doses after X. Where survival is the endpoint, the PubChem record calls one and a half times the control and up active, and a quarter to a half above the control has no call in these data; cut-offs in other NCI protocols can differ.
# Test system: L1210 leukemia ip in BDF1 mice, survival T/C
# Assay: NCI In Vivo Anticancer Drug Screen. Data for tumor model L1210 Leukemia (intraperitoneal) in B6D2F1 (BDF1) mice
# Details: T/C endpoint: mean survival time, higher T/C = longer survival
# [1] = dose: 400.0 mg/kg/injection, schedule: Q01DX001 (ip), vehicle: saline
smiles,measurement,setting,value
CCN(CCCl)c1ccc(/C=C/C2=[N+](C)c3ccccc3C2(C)C)c(C)c1,survivor count,"dose: 3.13 mg/kg/injection, schedule: Q01DX009 (ip), vehicle: saline",3 of 6
same,survivor count,"dose: 6.25 mg/kg/injection, schedule: Q01DX009 (ip), vehicle: saline",0 of 6
same,survivor count,"dose: 12.5 mg/kg/injection, schedule: Q01DX009 (ip), vehicle: saline",5 of 6
same,survivor count,"dose: 25.0 mg/kg/injection, schedule: Q04DX003 (ip), vehicle: saline",4 of 6
same,survivor count,"dose: 100.0 mg/kg/injection, schedule: Q04DX003 (ip), vehicle: saline",0 of 6
same,survivor count,"dose: 200.0 mg/kg/injection, schedule: Q04DX003 (ip), vehicle: saline",0 of 6
same,survivor count,"dose: 400.0 mg/kg/injection, schedule: Q04DX003 (ip), vehicle: saline",0 of 6
OC/C(I)=C(I)\C(I)=C(\I)CO,survivor count,"dose: 200.0 mg/kg/injection, schedule: Q04DX002 (ip), vehicle: Klucel (hydroxypropylcellulose) (HPC)",0 of 3
same,survivor count,"dose: 400.0 mg/kg/injection, schedule: Q04DX002 (ip), vehicle: Klucel (hydroxypropylcellulose) (HPC)",0 of 3
O=C(O)Cc1ccccc1,survivor count,"dose: 300.0 mg/kg/injection, schedule: Q01DX001 (ip), vehicle: carboxymethylcellulose (CMC)",5 of 6
same,survivor count,"dose: 300.0 mg/kg/injection, schedule: Q01DX001 (ip), vehicle: saline",3 of 6
Clc1ccc(C[P+](c2ccccc2)(c2ccccc2)c2ccccc2)cc1Cl,survivor count,"dose: 5.0 mg/kg/injection, schedule: Q04DX003 (ip), vehicle: acetone",6 of 6
same,survivor count,"dose: 10.0 mg/kg/injection, schedule: Q04DX003 (ip), vehicle: acetone",6 of 6
same,survivor count,"dose: 20.0 mg/kg/injection, schedule: Q01DX001 (ip), vehicle: acetone",0 of 6
CCC(C)C(C)CO (stereo not given),survivor count,[1],0 of 4
CNNP1(=O)OCC(C)([N+](=O)[O-])CO1 (stereo not given),survivor count,[1],2 of 4
Cc1ccc(S(=O)(=O)ON/N=C2\C(=O)C3CCC2C3)cc1 (stereo not given),survivor count,"dose: 200.0 mg/kg/injection, schedule: Q04DX002 (ip), vehicle: saline with Tween-80",3 of 3
same,survivor count,"dose: 400.0 mg/kg/injection, schedule: Q04DX002 (ip), vehicle: saline with Tween-80",3 of 3
ClCc1nc2ccccc2s1,survivor count,"dose: 400.0 mg/kg/injection, schedule: Q01DX009 (ip), vehicle: Klucel (hydroxypropylcellulose) (HPC)",0 of 3
CN(Cc1cnc2nc(N[Si](C)(C)C)nc(N[Si](C)(C)C)c2n1)c1ccc(C(=O)NC(CCC(=O)O[Si](C)(C)C)C(=O)O[Si](C)(C)C)cc1 (stereo not given),T/C,"dose: 0.62 mg/kg/injection, schedule: Q01DX009 (ip), vehicle: saline with Tween-80",131 % of control
same,T/C,"dose: 2.5 mg/kg/injection, schedule: Q01DX009 (ip), vehicle: saline",137 % of control
same,survivor count,"dose: 10.0 mg/kg/injection, schedule: Q01DX009 (ip), vehicle: saline with Tween-80",1 of 6
same,survivor count,"dose: 20.0 mg/kg/injection, schedule: Q01DX009 (ip), vehicle: saline with Tween-80",4 of 6
same,survivor count,"dose: 20.0 mg/kg/injection, schedule: Q01DX009 (ip), vehicle: saline",6 of 6
same,survivor count,"dose: 40.0 mg/kg/injection, schedule: Q01DX009 (ip), vehicle: saline with Tween-80",2 of 6
same,survivor count,"dose: 40.0 mg/kg/injection, schedule: Q01DX009 (ip), vehicle: saline",5 of 6
S=c1ncn(C2CCCCC2)c(=S)[nH]1,survivor count,"dose: 200.0 mg/kg/injection, schedule: Q04DX003 (ip), vehicle: Klucel (hydroxypropylcellulose) (HPC)",6 of 6
O=C(CBr)N1CCC2(CC1)SSC1(CCN(C(=O)CBr)CC1)S2,survivor count,"dose: 200.0 mg/kg/injection, schedule: Q01DX009 (ip), vehicle: saline with Tween-80",3 of 6
same,survivor count,"dose: 400.0 mg/kg/injection, schedule: Q04DX003 (ip), vehicle: saline with Tween-80",0 of 6
NC(=O)Nc1cccc2c1-c1ccccc1C2=O,survivor count,"dose: 200.0 mg/kg/injection, schedule: Q04DX003 (ip), vehicle: acetone",6 of 6
CC1(C)N=C1c1ccccc1,survivor count,"dose: 400.0 mg/kg/injection, schedule: Q04DX002 (ip), vehicle: saline",1 of 3
CCOC(=O)NNC(=O)c1ccccc1,survivor count,"dose: 75.0 mg/kg/injection, schedule: Q01DX009 (ip), vehicle: alcohol",1 of 6
same,survivor count,"dose: 100.0 mg/kg/injection, schedule: Q04DX003 (ip), vehicle: alcohol",3 of 6
same,survivor count,"dose: 115.0 mg/kg/injection, schedule: Q01DX009 (ip), vehicle: alcohol",0 of 6
same,survivor count,"dose: 170.0 mg/kg/injection, schedule: Q01DX009 (ip), vehicle: alcohol",0 of 6
